This assay deals with 53BP1 (human (endogenous in human skin fibroblasts)) (UniProt Q12888). The assay is described as follows: proximity ligation; Duolink PLA on fixed and permeabilised human skin fibroblasts with antibodies against HP1α and 53BP1; signal detected within 10 minutes after irradiation.

Protein sequences, listed by entry. Tags and fused reporters are not part of them.
UniProt Q12888: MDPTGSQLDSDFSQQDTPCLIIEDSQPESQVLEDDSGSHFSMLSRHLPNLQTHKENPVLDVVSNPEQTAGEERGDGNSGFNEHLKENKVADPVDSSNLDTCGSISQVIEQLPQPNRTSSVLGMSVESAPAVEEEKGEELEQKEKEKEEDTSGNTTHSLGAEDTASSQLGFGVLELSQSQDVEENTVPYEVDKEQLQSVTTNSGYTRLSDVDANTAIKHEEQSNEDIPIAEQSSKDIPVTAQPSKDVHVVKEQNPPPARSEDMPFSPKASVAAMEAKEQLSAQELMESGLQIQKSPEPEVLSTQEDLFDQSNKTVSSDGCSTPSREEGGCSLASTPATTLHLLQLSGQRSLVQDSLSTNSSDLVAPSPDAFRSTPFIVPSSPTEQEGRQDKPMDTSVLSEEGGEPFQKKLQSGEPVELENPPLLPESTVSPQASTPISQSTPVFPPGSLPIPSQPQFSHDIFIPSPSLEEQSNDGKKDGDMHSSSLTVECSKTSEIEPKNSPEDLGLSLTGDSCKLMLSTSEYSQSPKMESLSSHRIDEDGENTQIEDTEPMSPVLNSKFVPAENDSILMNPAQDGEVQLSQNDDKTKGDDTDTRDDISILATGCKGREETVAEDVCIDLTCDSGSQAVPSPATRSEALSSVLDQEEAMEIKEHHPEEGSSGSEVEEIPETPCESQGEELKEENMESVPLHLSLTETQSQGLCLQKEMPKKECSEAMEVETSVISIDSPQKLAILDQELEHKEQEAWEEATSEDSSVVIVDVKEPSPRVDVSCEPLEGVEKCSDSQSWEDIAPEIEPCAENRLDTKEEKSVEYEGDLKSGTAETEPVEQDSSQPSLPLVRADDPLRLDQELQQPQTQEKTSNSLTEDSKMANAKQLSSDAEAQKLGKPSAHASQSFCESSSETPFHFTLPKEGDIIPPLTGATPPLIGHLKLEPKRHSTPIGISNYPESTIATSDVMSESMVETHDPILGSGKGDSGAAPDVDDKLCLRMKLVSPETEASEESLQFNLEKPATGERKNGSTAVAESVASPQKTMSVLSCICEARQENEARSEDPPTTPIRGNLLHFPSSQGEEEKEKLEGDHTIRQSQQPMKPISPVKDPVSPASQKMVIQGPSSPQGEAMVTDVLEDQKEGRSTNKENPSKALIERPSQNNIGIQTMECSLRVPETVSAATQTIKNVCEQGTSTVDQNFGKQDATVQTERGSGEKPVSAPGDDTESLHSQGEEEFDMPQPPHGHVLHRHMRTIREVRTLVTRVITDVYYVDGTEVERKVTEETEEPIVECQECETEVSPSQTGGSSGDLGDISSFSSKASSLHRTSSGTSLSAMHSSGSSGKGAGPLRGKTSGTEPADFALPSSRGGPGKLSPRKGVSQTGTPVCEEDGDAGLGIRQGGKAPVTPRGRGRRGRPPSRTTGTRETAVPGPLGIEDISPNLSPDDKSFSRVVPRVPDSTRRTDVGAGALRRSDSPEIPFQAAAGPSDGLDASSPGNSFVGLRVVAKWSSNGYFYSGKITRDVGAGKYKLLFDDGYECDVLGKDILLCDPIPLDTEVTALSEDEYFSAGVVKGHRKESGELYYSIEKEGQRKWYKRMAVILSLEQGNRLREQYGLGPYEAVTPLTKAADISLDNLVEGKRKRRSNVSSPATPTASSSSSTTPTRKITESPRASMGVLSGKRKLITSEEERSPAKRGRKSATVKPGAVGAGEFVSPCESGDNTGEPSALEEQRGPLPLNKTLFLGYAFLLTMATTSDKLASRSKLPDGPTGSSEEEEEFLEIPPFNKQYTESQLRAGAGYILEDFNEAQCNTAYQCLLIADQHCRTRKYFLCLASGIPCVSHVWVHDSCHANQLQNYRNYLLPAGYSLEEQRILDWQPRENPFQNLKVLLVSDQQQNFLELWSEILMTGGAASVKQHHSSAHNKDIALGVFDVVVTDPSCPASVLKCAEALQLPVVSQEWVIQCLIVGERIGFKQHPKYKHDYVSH
UniProt P45973: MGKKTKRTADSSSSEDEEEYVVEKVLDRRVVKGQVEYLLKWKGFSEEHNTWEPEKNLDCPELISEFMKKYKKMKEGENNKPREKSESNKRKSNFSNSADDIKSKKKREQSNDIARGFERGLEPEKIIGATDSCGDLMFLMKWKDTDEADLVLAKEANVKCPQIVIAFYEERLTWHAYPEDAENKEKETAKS

No constants are given. Whether binding was seen depends on the method and setting. Binding seen in cells or lysates may run through a third protein. Some binding calls cover weakened binding; strength is not graded here.

Take “Heterochromatin protein 1α (HP1α) (from UniProt P45973 1-191)”: the binding entry is recorded as “binds”.

For the origin of these results see article PMC7343504.
